Test results reported in US7414041B2 (Trustees Of Tufts College, priority 1991, dated 2008).
Some entries share one result that the patent states for a list of compounds.

Assays:
E. coli (D1-299) = conditions: combination with tetracycline
S. aureus (RN4250) = conditions: combination with tetracycline

Substance | concentrations of analogue and tetracycline that inhibited growth (E. coli (D1-299)) [μg/ml] | combined dose of the two drugs to achieve MLC (S. aureus (RN4250)) [µg/mL]
6-deoxy-13-(cyclohexyl mercapto) tetracycline | ≤ 5 | ≤ 6
6-deoxy-13-(benzyl mercapto) tetracycline |  | ≤ 6
